Measurements published in patent US20210260009A1, “METHODS AND COMPOSITIONS FOR THE TREATMENT OF A RENAL DISEASE” (priority 2020, published 2021).

B1: sp|P64588|YQJI_ECOLI (protein, UniProt P64588 1-207, looked up)
Transcriptional regulator YqjI: MSHHHEGCCKHEGQPRHEGCCKGEKSEHEHCGHGHQHEHGQCCGGRHGRGGGRRQRFFGHGELRLVILDILSRDDSHGYELIKAIENLTQGNYTPSPGVIYPTLDFLQEQSLITIREEEGGKKQIALTEQGAQWLEENREQVEMIEERIKARCVGAALRQNPQMKRALDNFKAVLDLRVNQSDISDAQIKKIIAVIDRAAFDITQLD
B2: sp|P0A8A0|YEBC_ECOLI (protein, UniProt P0A8A0 1-246, looked up)
Probable transcriptional …: MAGHSKWANTRHRKAAQDAKRGKIFTKIIRELVTAAKLGGGDPDANPRLRAAVDKALSNNMTRDTLNRAIARGVGGDDDANMETIIYEGYGPGGTAIMIECLSDNRNRTVAEVRHAFSKCGGNLGTDGSVAYLFSKKGVISFEKGDEDTIMEAALEAGAEDVVTYDDGAIDVYTAWEEMGKVRDALEAAGLKADSAEVSMIPSTKADMDAETAPKLMRLIDMLEDCDDVQEVYHNGEISDEVAATL
B3: sp|P36683|ACNB_ECOLI (protein, UniProt P36683 1-865, looked up)
Aconitate hydratase B: MLEEYRKHVAERAAEGIAPKPLDANQMAALVELLKNPPAGEEEFLLDLLTNRVPPGVDEAAYVKAGFLAAIAKGEAKSPLLTPEKAIELLGTMQGGYNIHPLIDALDDAKLAPIAAKALSHTLLMFDNFYDVEEKAKAGNEYAKQVMQSWADAEWFLNRPALAEKLTVTVFKVTGETNTDDLSPAPDAWSRPDIPLHALAMLKNAREGIEPDQPGVVGPIKQIEALQQKGFPLAYVGDVVGTGSSRKSATNSVLWFMGDDIPHVPNKRGGGLCLGGKIAPIFFNTMEDAGALPIEVDVSNLNMGDVIDVYPYKGEVRNHETGELLATFELKTDVLIDEVRAGGRIPLIIGRGLTTKAREALGLPHSDVFRQAKDVAESDRGFSLAQKMVGRACGVKGIRPGAYCEPKMTSVGSQDTTGPMTRDELKDLACLGFSADLVMQSFCHTAAYPKPVDVNTHHTLPDFIMNRGGVSLRPGDGVIHSWLNRMLLPDTVGTGGDSHTRFPIGISFPAGSGLVAFAAATGVMPLDMPESVLVRFKGKMQPGITLRDLVHAIPLYAIKQGLLTVEKKGKKNIFSGRILEIEGLPDLKVEQAFELTDASAERSAAGCTIKLNKEPIIEYLNSNIVLLKWMIAEGYGDRRTLERRIQGMEKWLANPELLEADADAEYAAVIDIDLADIKEPILCAPNDPDDARPLSAVQGEKIDEVFIGSCMTNIGHFRAAGKLLDAHKGQLPTRLWVAPPTRMDAAQLTEEGYYSVFGKSGARIEIPGCSLCMGNQARVADGATVVSTSTRNFPNRLGTGANVFLASAELAAVAALIGKLPTPEEYQTYVAQVDKTAVDTYRYLNFNQLSQYTEKADGVIFQTAV
B4: sp|P35340|AHPF_ECOLI (protein, UniProt P35340 1-521, looked up)
Alkyl hydroperoxide reductase …: MLDTNMKTQLKAYLEKLTKPVELIATLDDSAKSAEIKELLAEIAELSDKVTFKEDNSLPVRKPSFLITNPGSNQGPRFAGSPLGHEFTSLVLALLWTGGHPSKEAQSLLEQIRHIDGDFEFETYYSLSCHNCPDVVQALNLMSVLNPRIKHTAIDGGTFQNEITDRNVMGVPAVFVNGKEFGQGRMTLTEIVAKIDTGAEKRAAEELNKRDAYDVLIVGSGPAGAAAAIYSARKGIRTGLMGERFGGQILDTVDIENYISVPKTEGQKLAGALKVHVDEYDVDVIDSQSASKLIPAAVEGGLHQIETASGAVLKARSIIVATGAKWRNMNVPGEDQYRTKGVTYCPHCDGPLFKGKRVAVIGGGNSGVEAAIDLAGIVEHVTLLEFAPEMKADQVLQDKLRSLKNVDIILNAQTTEVKGDGSKVVGLEYRDRVSGDIHNIELAGIFVQIGLLPNTNWLEGAVERNRMGEIIIDAKCETNVKGVFAAGDCTTVPYKQIIIATGEGAKASLSAFDYLIRTKTA
B5: sp|P0A8G6|NQOR_ECOLI (protein, UniProt P0A8G6 2-198, looked up)
NAD(P)H dehydrogenase …: AKVLVLYYSMYGHIETMARAVAEGASKVDGAEVVVKRVPETMPPQLFEKAGGKTQTAPVATPQELADYDAIIFGTPTRFGNMSGQMRTFLDQTGGLWASGALYGKLASVFSSTGTGGGQEQTITSTWTTLAHHGMVIVPIGYAAQELFDVSQVRGGTPYGATTIAGGDGSRQPSQEELSIARYQGEYVAGLAVKLNG
B6: sp|P21599|KPYK2_ECOLI (protein, UniProt P21599 2-480, looked up)
Pyruvate kinase II: SRRLRRTKIVTTLGPATDRDNNLEKVIAAGANVVRMNFSHGSPEDHKMRADKVREIAAKLGRHVAILGDLQGPKIRVSTFKEGKVFLNIGDKFLLDANLGKGEGDKEKVGIDYKGLPADVVPGDILLLDDGRVQLKVLEVQGMKVFTEVTVGGPLSNNKGINKLGGGLSAEALTEKDKADIKTAALIGVDYLAVSFPRCGEDLNYARRLARDAGCDAKIVAKVERAEAVCSQDAMDDIILASDVVMVARGDLGVEIGDPELVGIQKALIRRARQLNRAVITATQMMESMITNPMPTRAEVMDVANAVLDGTDAVMLSAETAAGQYPSETVAAMARVCLGAEKIPSINVSKHRLDVQFDNVEEAIAMSAMYAANHLKGVTAIITMTESGRTALMTSRISSGLPIFAMSRHERTLNLTALYRGVTPVHFDSANDGVAAASEAVNLLRDKGYLMSGDLVIVTQGDVMSTVGSTNTTRILTVE
B7: sp|P00968|CARB_ECOLI (protein, UniProt P00968 2-1073, looked up)
Carbamoyl phosphate synthase …: PKRTDIKSILILGAGPIVIGQACEFDYSGAQACKALREEGYRVILVNSNPATIMTDPEMADATYIEPIHWEVVRKIIEKERPDAVLPTMGGQTALNCALELERQGVLEEFGVTMIGATADAIDKAEDRRRFDVAMKKIGLETARSGIAHTMEEALAVAADVGFPCIIRPSFTMGGSGGGIAYNREEFEEICARGLDLSPTKELLIDESLIGWKEYEMEVVRDKNDNCIIVCSIENFDAMGIHTGDSITVAPAQTLTDKEYQIMRNASMAVLREIGVETGGSNVQFAVNPKNGRLIVIEMNPRVSRSSALASKATGFPIAKVAAKLAVGYTLDELMNDITGGRTPASFEPSIDYVVTKIPRFNFEKFAGANDRLTTQMKSVGEVMAIGRTQQESLQKALRGLEVGATGFDPKVSLDDPEALTKIRRELKDAGADRIWYIADAFRAGLSVDGVFNLTNIDRWFLVQIEELVRLEEKVAEVGITGLNADFLRQLKRKGFADARLAKLAGVREAEIRKLRDQYDLHPVYKRVDTCAAEFATDTAYMYSTYEEECEANPSTDREKIMVLGGGPNRIGQGIEFDYCCVHASLALREDGYETIMVNCNPETVSTDYDTSDRLYFEPVTLEDVLEIVRIEKPKGVIVQYGGQTPLKLARALEAAGVPVIGTSPDAIDRAEDRERFQHAVERLKLKQPANATVTAIEMAVEKAKEIGYPLVVRPSYVLGGRAMEIVYDEADLRRYFQTAVSVSNDAPVLLDHFLDDAVEVDVDAICDGEMVLIGGIMEHIEQAGVHSGDSACSLPAYTLSQEIQDVMRQQVQKLAFELQVRGLMNVQFAVKNNEVYLIEVNPRAARTVPFVSKATGVPLAKVAARVMAGKSLAEQGVTKEVIPPYYSVKEVVLPFNKFPGVDPLLGPEMRSTGEVMGVGRTFAEAFAKAQLGSNSTMKKHGRALLSVREGDKERVVDLAAKLLKQGFELDATHGTAIVLGEAGINPRLVNKVHEGRPHIQDRIKNGEYTYIINTTSGRRAIEDSRVIRRSALQYKVHYDTTLNGGFATAMALNADATEKVISVQEMHAQIK

Tested on: E. coli K-12 proteome
Conditions: S-sulfhydrated protein pull-down, TMT LC-MS3; ΔdecR E. coli lysate

Q: With B1 as the molecule, how does the ΔdecR read?
A: The ΔdecR was 0.29.

Q: With B2 as the molecule, how does the ΔdecR read?
A: Its ΔdecR is 0.94.

Q: Which ΔdecR does the source give for B3 here?
A: Its ΔdecR is 1.04.

Q: Which ΔdecR does the source give for B4 here?
A: The ΔdecR was 1.29.

Q: How did the ΔdecR turn out when B5 was run?
A: Its ΔdecR is 1.39.

Q: With B6 as the molecule, how does the ΔdecR read?
A: The ΔdecR was 1.76.

Q: How did the ΔdecR turn out when B7 was run?
A: Its ΔdecR is 1.52.
